The source of these data is PMC5838168, “Effect of human very low-density lipoproteins on cardiotrophin-like cytokine factor 1 (CLCF1) activity” (Scientific Reports, 2018).

The chains behind the UniProt entries cited, without tags or fusion partners. Where a name states a change or a piece, a line headed by the entry shows the natural chain unless it says otherwise. Residues count along the entry.
UniProt P02649, residues 19-317: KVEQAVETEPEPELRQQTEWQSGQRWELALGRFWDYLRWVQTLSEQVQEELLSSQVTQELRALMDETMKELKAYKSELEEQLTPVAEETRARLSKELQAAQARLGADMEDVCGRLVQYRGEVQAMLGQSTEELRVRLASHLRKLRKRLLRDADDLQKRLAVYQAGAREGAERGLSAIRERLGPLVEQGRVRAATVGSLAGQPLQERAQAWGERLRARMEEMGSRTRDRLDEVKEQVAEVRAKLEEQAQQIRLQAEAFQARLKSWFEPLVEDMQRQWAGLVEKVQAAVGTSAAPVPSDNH
UniProt O88507: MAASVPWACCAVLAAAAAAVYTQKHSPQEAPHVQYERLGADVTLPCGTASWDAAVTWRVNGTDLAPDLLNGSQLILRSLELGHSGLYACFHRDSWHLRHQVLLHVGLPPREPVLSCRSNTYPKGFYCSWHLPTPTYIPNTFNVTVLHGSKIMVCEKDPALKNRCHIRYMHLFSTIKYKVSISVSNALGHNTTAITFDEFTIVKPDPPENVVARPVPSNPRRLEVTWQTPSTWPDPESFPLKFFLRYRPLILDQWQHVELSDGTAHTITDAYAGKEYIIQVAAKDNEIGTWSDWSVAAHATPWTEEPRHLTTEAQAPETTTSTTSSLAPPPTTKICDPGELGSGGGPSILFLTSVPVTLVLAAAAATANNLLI
UniProt Q00560: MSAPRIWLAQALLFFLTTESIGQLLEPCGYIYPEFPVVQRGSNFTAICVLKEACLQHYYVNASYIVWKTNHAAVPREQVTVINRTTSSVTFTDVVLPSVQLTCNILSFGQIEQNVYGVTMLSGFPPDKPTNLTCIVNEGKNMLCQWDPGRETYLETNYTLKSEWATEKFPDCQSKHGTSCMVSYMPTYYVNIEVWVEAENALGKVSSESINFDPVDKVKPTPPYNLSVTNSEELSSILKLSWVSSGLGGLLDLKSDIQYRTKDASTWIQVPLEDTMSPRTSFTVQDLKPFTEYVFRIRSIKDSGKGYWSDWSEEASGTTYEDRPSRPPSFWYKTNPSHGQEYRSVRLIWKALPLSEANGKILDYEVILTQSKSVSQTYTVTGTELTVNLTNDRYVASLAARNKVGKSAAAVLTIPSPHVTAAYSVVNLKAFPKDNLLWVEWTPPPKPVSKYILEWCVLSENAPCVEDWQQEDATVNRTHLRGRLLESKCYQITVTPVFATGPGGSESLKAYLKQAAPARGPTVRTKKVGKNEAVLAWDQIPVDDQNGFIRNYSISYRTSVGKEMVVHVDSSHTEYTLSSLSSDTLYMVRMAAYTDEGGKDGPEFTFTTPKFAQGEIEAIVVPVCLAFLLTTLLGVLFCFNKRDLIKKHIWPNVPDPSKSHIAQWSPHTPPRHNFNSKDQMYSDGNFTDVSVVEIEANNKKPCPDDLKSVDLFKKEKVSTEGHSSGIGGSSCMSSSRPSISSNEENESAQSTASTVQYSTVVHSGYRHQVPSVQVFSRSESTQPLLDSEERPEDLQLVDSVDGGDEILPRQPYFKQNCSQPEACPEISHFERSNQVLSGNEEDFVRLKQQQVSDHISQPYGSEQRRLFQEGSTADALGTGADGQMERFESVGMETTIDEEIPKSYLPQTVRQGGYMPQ
UniProt P42703: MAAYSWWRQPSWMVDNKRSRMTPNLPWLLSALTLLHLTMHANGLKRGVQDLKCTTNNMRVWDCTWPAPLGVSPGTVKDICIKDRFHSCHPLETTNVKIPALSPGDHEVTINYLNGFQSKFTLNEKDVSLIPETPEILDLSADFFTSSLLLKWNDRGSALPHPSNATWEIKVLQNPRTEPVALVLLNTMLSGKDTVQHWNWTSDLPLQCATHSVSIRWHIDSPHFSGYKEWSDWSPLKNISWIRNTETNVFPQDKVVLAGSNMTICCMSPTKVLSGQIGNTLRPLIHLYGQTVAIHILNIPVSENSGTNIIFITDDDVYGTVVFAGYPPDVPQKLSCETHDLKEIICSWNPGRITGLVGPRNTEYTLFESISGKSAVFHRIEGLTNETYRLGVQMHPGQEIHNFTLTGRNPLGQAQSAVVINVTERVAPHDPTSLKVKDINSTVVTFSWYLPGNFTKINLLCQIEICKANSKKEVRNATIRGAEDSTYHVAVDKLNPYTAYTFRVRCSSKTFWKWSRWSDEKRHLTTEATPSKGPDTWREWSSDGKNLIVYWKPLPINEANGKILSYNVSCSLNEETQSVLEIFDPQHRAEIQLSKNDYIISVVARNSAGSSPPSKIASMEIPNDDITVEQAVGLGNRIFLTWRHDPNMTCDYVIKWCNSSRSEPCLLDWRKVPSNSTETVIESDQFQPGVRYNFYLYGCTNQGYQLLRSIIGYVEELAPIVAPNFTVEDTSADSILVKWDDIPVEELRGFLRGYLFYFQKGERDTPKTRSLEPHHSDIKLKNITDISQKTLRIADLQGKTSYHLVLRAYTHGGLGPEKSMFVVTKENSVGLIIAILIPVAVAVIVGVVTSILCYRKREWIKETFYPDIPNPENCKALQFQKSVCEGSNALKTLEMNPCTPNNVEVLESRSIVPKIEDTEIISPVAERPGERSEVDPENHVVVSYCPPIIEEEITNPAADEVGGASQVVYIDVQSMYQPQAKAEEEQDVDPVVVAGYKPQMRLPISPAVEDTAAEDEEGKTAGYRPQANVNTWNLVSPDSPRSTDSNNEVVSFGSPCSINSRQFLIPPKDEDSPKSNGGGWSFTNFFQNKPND

Assay [1] concerns the target human serum ApoE3 (human (endogenous in serum)) (UniProt P02649). Briefly: SEC; 50 ul human, WT mouse or ApoE−/− mouse serum mixed with 1 ug biotinylated human or mouse CLCF1; FPLC on Superose 6 HR 10/30, 40 fractions analysed by Western blot for ApoE and with HRP-streptavidin for CLCF1; only the binder purified. On the technique in general: Size exclusion chromatography separates by hydrodynamic size, large species first.

The target is the same in assay [2]. Briefly: co-IP; mouse or human serum diluted 1:20 in PBS, mixed with biotinylated CLCF1 of the same species and anti-ApoE IgG, 16 h at 4 °C; anti-Ig beads; CLCF1 detected with HRP-streptavidin; only the binder purified.
The target of assay [3] is T1, mouse serum ApoE (mouse (endogenous in serum)) (UniProt P08226).
T1 sequence: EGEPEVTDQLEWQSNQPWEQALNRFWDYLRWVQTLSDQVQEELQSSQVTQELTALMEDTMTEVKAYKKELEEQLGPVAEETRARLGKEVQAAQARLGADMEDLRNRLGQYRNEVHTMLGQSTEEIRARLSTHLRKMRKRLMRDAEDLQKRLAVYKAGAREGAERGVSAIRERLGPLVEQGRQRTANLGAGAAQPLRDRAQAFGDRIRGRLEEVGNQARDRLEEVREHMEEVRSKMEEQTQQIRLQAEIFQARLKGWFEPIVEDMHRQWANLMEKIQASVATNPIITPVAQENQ
Briefly: SEC; 50 ul human, WT mouse or ApoE−/− mouse serum mixed with 1 ug biotinylated human or mouse CLCF1; FPLC on Superose 6 HR 10/30, 40 fractions analysed by Western blot for ApoE and with HRP-streptavidin for CLCF1; only the binder purified.

Assay [4] has as its target tripartite CNTFR (CNTFRα, gp130 and LIFRβ) on Ba/F3 transfectants (not stated (human or mouse cDNA cloned)) (UniProt O88507+Q00560+P42703). Briefly: flow cytometry on cells; cells 1 h on ice in PBS 0.1% BSA with species-matched biotinylated CLCF1 (1 ug/ml) alone or with ApoE or HDL, LDL, VLDL (100 ug/ml); PE-streptavidin; only the binder purified. In general terms: In flow cytometry, cells or beads pass a laser one at a time.

For assay [5], the target named is CNTFR on 3T3-L1 mouse pre-adipocytes (mouse (endogenous in 3T3-L1)) (UniProt O88507+Q00560+P42703). Described as above.
Assay [6] deals with T1, mouse serum ApoE (mouse (endogenous in serum)). Briefly: co-IP; mouse or human serum diluted 1:20 in PBS, mixed with biotinylated CLCF1 of the same species and anti-ApoE IgG, 16 h at 4 °C; anti-Ig beads; CLCF1 detected with HRP-streptavidin; only the binder purified.
Assay [7] has as its target ApoE3 secreted by Flp-In HEK-293 transfectants (human) (UniProt P02649). Description: co-IP; 20x concentrated serum-free culture medium of Flp-In HEK-293 stable transfectants co-expressing CLCF1, CRLF1 and ApoE2, 3 or 4; rat anti-ApoE mAb and anti-rat Ig agarose; glycine pH 2.5 eluates analysed by Western blot. For orientation: A western blot detects proteins with antibodies after separation by electrophoresis.

Residue numbers refer to the chain shown, from its start. Results are given in words; binding and its absence hold for the method and conditions named. For some of these results: Binding seen in cells or lysates may run through a third protein. Some results given as binding are weak or reduced against the parent protein; the word gives no strength.

B1: biotinylated human CLCF1 (cardiotrophin-like cytokine factor 1) (ligand, UniProt Q9UBD9 28-225, looked up)
chain: LNRTGDPGPGPSIQKTYDLTRYLEHQLRSLAGTYLNYLGPPFNEPDFNPPRLGAETLPRATVDLEVWRSLNDKLRLTQNYEAYSHLLCYLRGLNRQAATAELRRSLAHFCTSLQGLLGSIAGVMAALGYPLPQPLPGTEPTWTPGPAHSDFLQKMDDFWLLKELQTWLWRSAKDFNRLKKKMQPPAAAVTLHLGAHGF
modifications: biotin on the Avitag (BirA biotin-ligase)
notes: Cardiotrophin-like cytokine factor 1 (CLCF1), human, mature protein, codon optimized synthetic cDNA in pET24d; also called biotinylated hCLCF1; hCLC biot
Turning to B1, the binding result in assay [1] and in assay [2] was “binds” in each case.

B2: biotinylated mouse CLCF1 (ligand, UniProt Q9QZM3 28-225)
chain: B1 chain with D63N, K73R, A126T, T141A, T143A, A188S, G194E
modifications: biotin on the Avitag (BirA biotin-ligase)
B2: the binding entry in assay [3], in assay [4], in assay [5] and in assay [6] was “binds” throughout.

B3: human CLCF1 secreted by Flp-In HEK-293 transfectants (co-expressed with CRLF1) (ligand, UniProt Q9UBD9 28-225)
chain: B1 chain
As for B3, the binding entry in assay [7] is “binds”.
